# Measurements published in the supplement of paper PMC8728848.
# Some of the results follow.
# B1: Epa21 (Candida glabrata) (protein)
# chain: MGSSHHHHHHSSGLVPRGSHMASTPNIESHPQGCSPVDTSGIKPGLKMDLYRFPITPPGTGCWSWDWLTVTPDFPRSGYWKWPKIAEVDGVVGPLHLDSGHPTCDPLTSVLPHGFNYLQSITTTNFTMVLHGYFVPKQSGKYTFEFKADDALLLNLGAGNAFSCCDYNNSQYNQGEYLAYAIWSKNNQTATLYLEKGIYYPIRVFYHNRCCGAYMDVVYYFNDSPIPNRDFSGLLFSIPDSDSCDANI
# What was measured:
# Assay in all cases: glycan array binding signal (z-score within array); higher = stronger binding
# Settings in all cases: glycan notation: IUPAC condensed, linker removed
# [1] = molecular target: Fuc(a1-2)Gal
# Procedure, shortened: (§1)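 Glycan array data came from 3228 arrays in the Consortium for Functional Glycomics database, and only arrays with an available protein sequence were kept. Glycan names were put into IUPAC-condensed notation, and columns mapping to the same glycan were averaged. The binding signal is a within-array Z-score, averaged across arrays of one protein sequence run at different concentrations or buffers and across linkers. A negative Z-score can be read as non-binding.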
# [2] = molecular target: Fuc(a1-2)Gal(b1-3)GalNAc
# Procedure, shortened: as §1
# [3] = molecular target: Fuc(a1-2)Gal(b1-3)GalNAc(a1-3)[Fuc(a1-2)]Gal(b1-4)Glc
# Procedure, shortened: as §1
# [4] = molecular target: Fuc(a1-2)Gal(b1-3)GalNAc(a1-3)[Fuc(a1-2)]Gal(b1-4)GlcNAc
# Procedure, shortened: as §1
# [5] = molecular target: Fuc(a1-2)Gal(b1-3)GalNAc(b1-3)Gal
# Procedure, shortened: as §1
# [6] = molecular target: Fuc(a1-2)Gal(b1-3)GalNAc(b1-3)Gal(a1-4)Gal(b1-4)Glc
# Procedure, shortened: as §1
# [7] = molecular target: Fuc(a1-2)Gal(b1-3)GalNAc(b1-4)[Neu5Ac(a2-3)]Gal(b1-4)Glc
# Procedure, shortened: as §1
# [8] = molecular target: Fuc(a1-2)Gal(b1-3)GlcNAc
# Procedure, shortened: as §1
# [9] = molecular target: Fuc(a1-2)Gal(b1-3)GlcNAc(b1-2)Man(a1-3)[Fuc(a1-2)Gal(b1-3)GlcNAc(b1-2)Man(a1-6)]Man(b1-4)GlcNAc(b1-4)GlcNAc
# Procedure, shortened: as §1
# [10] = molecular target: Fuc(a1-2)Gal(b1-3)GlcNAc(b1-2)Man(a1-3)[Fuc(a1-2)Gal(b1-3)GlcNAc(b1-2)Man(a1-6)]Man(b1-4)GlcNAc(b1-4)[Fuc(a1-6)]GlcNAc
# Procedure, shortened: as §1
# [11] = molecular target: Fuc(a1-2)Gal(b1-3)GlcNAc(b1-3)Gal(b1-4)Glc
# Procedure, shortened: as §1
# [12] = molecular target: Fuc(a1-2)Gal(b1-3)GlcNAc(b1-3)GalNAc
# Procedure, shortened: as §1
# [13] = molecular target: Fuc(a1-2)Gal(b1-3)GlcNAc(b1-3)[Fuc(a1-2)Gal(b1-3)GlcNAc(b1-6)]GalNAc
# Procedure, shortened: as §1
# [14] = molecular target: Fuc(a1-2)Gal(b1-3)GlcNAc(b1-3)[Gal(b1-4)GlcNAc(b1-6)]Gal(b1-4)Glc
# Procedure, shortened: as §1
# [15] = molecular target: Fuc(a1-2)Gal(b1-3)GlcNAc(b1-3)[Neu5Ac(a2-6)Gal(b1-4)GlcNAc(b1-6)]Gal(b1-4)Glc
# Procedure, shortened: as §1
# [16] = molecular target: Fuc(a1-2)Gal(b1-3)GlcNAc6S
# Procedure, shortened: as §1
# [17] = molecular target: Fuc(a1-2)Gal(b1-3)[Fuc(a1-4)]GlcNAc
# Procedure, shortened: as §1
# [18] = molecular target: Fuc(a1-2)Gal(b1-3)[Fuc(a1-4)]GlcNAc(b1-2)Man(a1-3)[Fuc(a1-2)Gal(b1-3)[Fuc(a1-4)]GlcNAc(b1-2)Man(a1-3)]Man(b1-4)GlcNAc(b1-4)GlcNAc
# Procedure, shortened: as §1
# [19] = molecular target: Fuc(a1-2)Gal(b1-3)[Fuc(a1-4)]GlcNAc(b1-2)Man(a1-3)[Fuc(a1-2)Gal(b1-3)[Fuc(a1-4)]GlcNAc(b1-2)Man(a1-6)]Man(b1-4)GlcNAc(b1-4)[Fuc(a1-6)]GlcNAc(b1-4)[Fuc(a1-6)]GlcNAc
# Procedure, shortened: as §1
# [20] = molecular target: Fuc(a1-2)Gal(b1-3)[Fuc(a1-4)]GlcNAc(b1-3)[Fuc(a1-3)[Gal(b1-4)]GlcNAc(b1-6)]Gal(b1-4)Glc
# Procedure, shortened: as §1
# [21] = molecular target: Fuc(a1-2)Gal(b1-3)[Fuc(a1-4)]GlcNAc(b1-3)[Gal(b1-4)GlcNAc(b1-6)]Gal(b1-4)Glc
# Procedure, shortened: as §1
# [22] = molecular target: Fuc(a1-2)Gal(b1-4)Fuc(a1-3)]GlcNAc(b1-2)Man(a1-3)[Fuc(a1-2)Gal(b1-4)[Fuc(a1-3)]GlcNAc(b1-2)Man(a1-6)]Man(b1-4)GlcNAc(b1-4)GlcNAc
# Procedure, shortened: as §1
# [23] = molecular target: Fuc(a1-2)Gal(b1-4)Glc
# Procedure, shortened: as §1
# [24] = molecular target: Fuc(a1-2)Gal(b1-4)Glc6S
# Procedure, shortened: as §1
# [25] = molecular target: Fuc(a1-2)Gal(b1-4)GlcNAc
# Procedure, shortened: as §1
# [26] = molecular target: Fuc(a1-2)Gal(b1-4)GlcNAc(b1-2)Man
# Procedure, shortened: as §1
# [27] = molecular target: Fuc(a1-2)Gal(b1-4)GlcNAc(b1-2)Man(a1-3)[Fuc(a1-2)Gal(b1-4)GlcNAc(b1-2)Man(a1-6)]Man(b1-4)GlcNAc(b1-4)GlcNAc
# Procedure, shortened: as §1
# [28] = molecular target: Fuc(a1-2)Gal(b1-4)GlcNAc(b1-2)Man(a1-3)[Fuc(a1-2)Gal(b1-4)GlcNAc(b1-2)Man(a1-6)]Man(b1-4)GlcNAc(b1-4)[Fuc(a1-6)]GlcNAc
# Procedure, shortened: as §1
# [29] = molecular target: Fuc(a1-2)Gal(b1-4)GlcNAc(b1-2)[Fuc(a1-2)Gal(b1-4)GlcNAc(b1-4)]Man(a1-3)[Fuc(a1-2)Gal(b1-4)GlcNAc(b1-2)Man(a1-6)]Man(b1-4)GlcNAc(b1-4)GlcNAc
# Procedure, shortened: as §1
# [30] = molecular target: Fuc(a1-2)Gal(b1-4)GlcNAc(b1-3)Gal(b1-4)GlcNAc
# Procedure, shortened: as §1
# [31] = molecular target: Fuc(a1-2)Gal(b1-4)GlcNAc(b1-3)Gal(b1-4)GlcNAc(b1-2)Man(a1-3)[Fuc(a1-2)Gal(b1-4)GlcNAc(b1-3)Gal(b1-4)GlcNAc(b1-2)Man(a1-6)]Man(b1-4)GlcNAc(b1-4)GlcNAc
# Procedure, shortened: as §1
# [32] = molecular target: Fuc(a1-2)Gal(b1-4)GlcNAc(b1-3)Gal(b1-4)GlcNAc(b1-3)Gal(b1-4)GlcNAc
# Procedure, shortened: as §1
# [33] = molecular target: Fuc(a1-2)Gal(b1-4)GlcNAc(b1-3)GalNAc
# Procedure, shortened: as §1
# [34] = molecular target: Fuc(a1-2)Gal(b1-4)GlcNAc(b1-3)[Fuc(a1-2)Gal(b1-4)GlcNAc(b1-6)]GalNAc
# Procedure, shortened: as §1
# [35] = molecular target: Fuc(a1-2)Gal(b1-4)GlcNAc(b1-3)[Fuc(a1-3)[Gal(b1-4)]GlcNAc(b1-6)]Gal(b1-4)Glc
# Procedure, shortened: as §1
# [36] = molecular target: Fuc(a1-2)Gal(b1-4)GlcNAc(b1-6)GalNAc
# Procedure, shortened: as §1
# [37] = molecular target: Fuc(a1-2)Gal(b1-4)GlcNAc6S
# Procedure, shortened: as §1
binder,measurement,setting,value
B1,glycan array binding signal (z-score),[1],-0.249
same,glycan array binding signal (z-score),[2],-0.67
same,glycan array binding signal (z-score),[3],-0.699
same,glycan array binding signal (z-score),[4],-0.512
same,glycan array binding signal (z-score),[5],0.656
same,glycan array binding signal (z-score),[6],-0.005
same,glycan array binding signal (z-score),[7],-0.391
same,glycan array binding signal (z-score),[8],-0.348
same,glycan array binding signal (z-score),[9],0.416
same,glycan array binding signal (z-score),[10],0.061
same,glycan array binding signal (z-score),[11],-0.405
same,glycan array binding signal (z-score),[12],-0.112
same,glycan array binding signal (z-score),[13],0.797
same,glycan array binding signal (z-score),[14],-0.436
same,glycan array binding signal (z-score),[15],-0.865
same,glycan array binding signal (z-score),[16],-0.453
same,glycan array binding signal (z-score),[17],-0.63
same,glycan array binding signal (z-score),[18],0.073
same,glycan array binding signal (z-score),[19],-0.251
same,glycan array binding signal (z-score),[20],-0.838
same,glycan array binding signal (z-score),[21],-0.368
same,glycan array binding signal (z-score),[22],2.49
same,glycan array binding signal (z-score),[23],-0.605
same,glycan array binding signal (z-score),[24],0.752
same,glycan array binding signal (z-score),[25],-0.158
same,glycan array binding signal (z-score),[26],0.069
same,glycan array binding signal (z-score),[27],-0.489
same,glycan array binding signal (z-score),[28],-0.477
same,glycan array binding signal (z-score),[29],-0.763
same,glycan array binding signal (z-score),[30],-0.829
same,glycan array binding signal (z-score),[31],-0.006
same,glycan array binding signal (z-score),[32],-0.508
same,glycan array binding signal (z-score),[33],-0.404
same,glycan array binding signal (z-score),[34],-0.296
same,glycan array binding signal (z-score),[35],-0.678
same,glycan array binding signal (z-score),[36],1.15
same,glycan array binding signal (z-score),[37],0.055

# Given with bars between the fields: part of the list above.
binder | measurement | setting | value
B1 | glycan array binding signal (z-score) | [1] | -0.249
same | glycan array binding signal (z-score) | [3] | -0.699
